# Data taken from the supplement of paper PMC12823440, “Inhibitors supercharge kinase turnover through native proteolytic circuits” (Nature, 2025).
# The chains behind the UniProt entries cited, without tags or fusion partners. Where a name states a change or a piece, a line headed by the entry shows the natural chain unless it says otherwise.
# UniProt P29317, whole entry: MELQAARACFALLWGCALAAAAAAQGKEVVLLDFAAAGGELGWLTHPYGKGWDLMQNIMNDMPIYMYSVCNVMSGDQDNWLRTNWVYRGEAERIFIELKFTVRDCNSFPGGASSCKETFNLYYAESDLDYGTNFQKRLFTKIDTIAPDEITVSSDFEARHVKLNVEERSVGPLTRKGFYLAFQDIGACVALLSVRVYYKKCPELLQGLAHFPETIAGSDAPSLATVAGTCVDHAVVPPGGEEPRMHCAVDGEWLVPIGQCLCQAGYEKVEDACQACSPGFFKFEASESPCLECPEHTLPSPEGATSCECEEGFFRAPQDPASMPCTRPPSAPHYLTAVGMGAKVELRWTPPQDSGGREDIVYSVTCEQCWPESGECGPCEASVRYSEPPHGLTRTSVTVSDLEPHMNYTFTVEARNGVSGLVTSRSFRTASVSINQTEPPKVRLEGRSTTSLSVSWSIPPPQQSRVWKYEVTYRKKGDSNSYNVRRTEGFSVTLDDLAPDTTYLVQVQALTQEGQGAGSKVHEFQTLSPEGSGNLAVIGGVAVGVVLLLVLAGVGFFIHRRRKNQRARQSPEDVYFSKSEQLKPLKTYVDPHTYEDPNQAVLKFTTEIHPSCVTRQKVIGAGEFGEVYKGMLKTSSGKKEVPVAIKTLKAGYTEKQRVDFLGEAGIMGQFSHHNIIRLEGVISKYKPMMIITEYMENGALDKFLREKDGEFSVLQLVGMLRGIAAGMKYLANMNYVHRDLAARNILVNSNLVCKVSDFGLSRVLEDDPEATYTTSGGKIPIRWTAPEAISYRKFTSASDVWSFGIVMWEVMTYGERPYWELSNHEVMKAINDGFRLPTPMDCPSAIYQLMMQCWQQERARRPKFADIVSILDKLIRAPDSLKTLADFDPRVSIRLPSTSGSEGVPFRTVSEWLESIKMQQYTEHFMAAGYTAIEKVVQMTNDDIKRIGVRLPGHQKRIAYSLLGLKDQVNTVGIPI
# UniProt P21860, whole entry: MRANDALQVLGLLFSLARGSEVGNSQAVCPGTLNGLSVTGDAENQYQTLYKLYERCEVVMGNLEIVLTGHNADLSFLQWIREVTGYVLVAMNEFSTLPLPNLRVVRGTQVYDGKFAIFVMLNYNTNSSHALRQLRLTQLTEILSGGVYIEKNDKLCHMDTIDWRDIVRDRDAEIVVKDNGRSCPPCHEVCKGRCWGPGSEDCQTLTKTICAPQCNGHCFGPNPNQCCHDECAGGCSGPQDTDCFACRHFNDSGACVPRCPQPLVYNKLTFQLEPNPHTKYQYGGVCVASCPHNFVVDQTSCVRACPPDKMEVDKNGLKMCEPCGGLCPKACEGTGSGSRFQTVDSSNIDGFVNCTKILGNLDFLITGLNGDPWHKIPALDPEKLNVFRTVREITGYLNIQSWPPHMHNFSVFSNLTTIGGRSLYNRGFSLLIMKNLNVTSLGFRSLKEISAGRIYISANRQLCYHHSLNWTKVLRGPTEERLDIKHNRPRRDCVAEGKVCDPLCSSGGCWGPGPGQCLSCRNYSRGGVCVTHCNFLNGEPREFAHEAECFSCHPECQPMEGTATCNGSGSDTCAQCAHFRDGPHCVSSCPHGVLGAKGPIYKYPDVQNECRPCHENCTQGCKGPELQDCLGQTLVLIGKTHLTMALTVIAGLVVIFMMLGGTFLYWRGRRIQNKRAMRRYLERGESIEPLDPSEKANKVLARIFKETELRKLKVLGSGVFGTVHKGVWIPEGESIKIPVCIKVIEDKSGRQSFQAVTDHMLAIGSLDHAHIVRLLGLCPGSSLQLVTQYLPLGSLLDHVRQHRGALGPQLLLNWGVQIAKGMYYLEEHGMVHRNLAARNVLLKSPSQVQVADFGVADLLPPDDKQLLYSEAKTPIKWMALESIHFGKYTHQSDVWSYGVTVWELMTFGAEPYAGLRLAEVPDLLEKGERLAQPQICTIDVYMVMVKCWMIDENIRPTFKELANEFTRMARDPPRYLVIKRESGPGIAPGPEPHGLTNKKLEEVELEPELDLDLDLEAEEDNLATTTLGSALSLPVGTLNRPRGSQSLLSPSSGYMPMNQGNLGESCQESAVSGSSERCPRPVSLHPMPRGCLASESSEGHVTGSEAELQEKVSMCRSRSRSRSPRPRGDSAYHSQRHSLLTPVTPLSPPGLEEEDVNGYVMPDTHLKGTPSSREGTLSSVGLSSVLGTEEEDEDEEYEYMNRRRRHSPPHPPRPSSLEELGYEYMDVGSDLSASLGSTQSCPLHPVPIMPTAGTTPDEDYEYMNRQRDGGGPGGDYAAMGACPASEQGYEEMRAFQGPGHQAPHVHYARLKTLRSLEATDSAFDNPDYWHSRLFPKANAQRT
# UniProt Q15303, whole entry R711C: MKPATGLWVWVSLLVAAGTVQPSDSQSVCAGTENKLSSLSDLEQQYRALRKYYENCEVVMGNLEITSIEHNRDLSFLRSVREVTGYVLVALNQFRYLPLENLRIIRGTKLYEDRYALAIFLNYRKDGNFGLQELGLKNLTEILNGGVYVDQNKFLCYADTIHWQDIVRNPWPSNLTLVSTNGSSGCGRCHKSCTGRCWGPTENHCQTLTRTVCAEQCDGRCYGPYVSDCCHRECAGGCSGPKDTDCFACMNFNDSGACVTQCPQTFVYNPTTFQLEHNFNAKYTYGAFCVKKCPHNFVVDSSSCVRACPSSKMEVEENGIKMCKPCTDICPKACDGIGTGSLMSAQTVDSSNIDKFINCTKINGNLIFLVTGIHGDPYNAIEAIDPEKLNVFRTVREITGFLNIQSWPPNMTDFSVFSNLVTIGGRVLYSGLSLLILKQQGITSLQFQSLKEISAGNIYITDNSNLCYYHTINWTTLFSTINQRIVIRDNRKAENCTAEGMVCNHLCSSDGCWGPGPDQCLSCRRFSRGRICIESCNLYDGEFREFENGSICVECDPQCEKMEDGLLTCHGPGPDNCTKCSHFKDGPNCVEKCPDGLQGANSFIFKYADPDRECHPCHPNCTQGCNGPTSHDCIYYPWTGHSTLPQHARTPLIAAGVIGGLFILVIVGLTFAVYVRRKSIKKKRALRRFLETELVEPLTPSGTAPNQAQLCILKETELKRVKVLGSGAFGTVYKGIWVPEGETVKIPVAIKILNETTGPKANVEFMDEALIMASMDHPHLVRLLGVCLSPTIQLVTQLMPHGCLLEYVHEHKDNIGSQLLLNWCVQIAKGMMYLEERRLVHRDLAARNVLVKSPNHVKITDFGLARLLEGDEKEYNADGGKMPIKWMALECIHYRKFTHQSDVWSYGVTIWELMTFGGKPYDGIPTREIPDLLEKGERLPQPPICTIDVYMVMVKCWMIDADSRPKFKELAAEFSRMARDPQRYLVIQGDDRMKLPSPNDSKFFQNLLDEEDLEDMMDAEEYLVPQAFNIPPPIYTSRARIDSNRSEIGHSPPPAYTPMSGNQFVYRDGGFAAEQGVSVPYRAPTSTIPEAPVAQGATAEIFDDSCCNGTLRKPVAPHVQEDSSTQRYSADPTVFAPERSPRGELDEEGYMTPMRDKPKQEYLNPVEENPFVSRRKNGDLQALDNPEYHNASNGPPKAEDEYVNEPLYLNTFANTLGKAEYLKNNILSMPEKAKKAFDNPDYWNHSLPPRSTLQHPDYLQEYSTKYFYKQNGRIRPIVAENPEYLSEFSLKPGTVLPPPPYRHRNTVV
# UniProt O75460: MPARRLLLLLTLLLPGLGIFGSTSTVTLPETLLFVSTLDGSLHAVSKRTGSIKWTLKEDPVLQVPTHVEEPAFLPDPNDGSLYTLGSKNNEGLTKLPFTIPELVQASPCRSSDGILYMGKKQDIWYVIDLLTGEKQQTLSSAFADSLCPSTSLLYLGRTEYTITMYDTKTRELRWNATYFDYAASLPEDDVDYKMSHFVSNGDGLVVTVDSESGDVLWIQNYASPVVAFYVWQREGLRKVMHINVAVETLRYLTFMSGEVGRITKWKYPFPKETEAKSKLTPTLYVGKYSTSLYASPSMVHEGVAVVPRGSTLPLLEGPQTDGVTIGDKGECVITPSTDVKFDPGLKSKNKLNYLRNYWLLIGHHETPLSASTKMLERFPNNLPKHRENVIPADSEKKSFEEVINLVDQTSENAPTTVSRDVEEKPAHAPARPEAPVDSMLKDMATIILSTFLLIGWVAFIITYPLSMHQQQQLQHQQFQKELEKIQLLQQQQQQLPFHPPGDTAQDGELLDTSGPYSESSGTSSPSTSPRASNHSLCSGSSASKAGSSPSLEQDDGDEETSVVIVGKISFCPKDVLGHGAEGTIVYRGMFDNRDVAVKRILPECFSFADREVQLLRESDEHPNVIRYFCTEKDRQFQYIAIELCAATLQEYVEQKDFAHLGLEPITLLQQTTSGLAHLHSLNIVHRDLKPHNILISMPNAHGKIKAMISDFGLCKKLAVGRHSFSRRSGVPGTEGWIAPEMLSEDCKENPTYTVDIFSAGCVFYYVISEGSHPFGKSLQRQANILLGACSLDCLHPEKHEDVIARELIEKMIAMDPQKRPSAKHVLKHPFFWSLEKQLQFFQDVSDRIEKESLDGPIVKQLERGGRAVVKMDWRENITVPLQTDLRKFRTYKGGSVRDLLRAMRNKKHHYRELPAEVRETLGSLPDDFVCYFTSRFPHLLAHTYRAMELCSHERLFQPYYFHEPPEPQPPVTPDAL
# UniProt P11362, whole entry, looked up: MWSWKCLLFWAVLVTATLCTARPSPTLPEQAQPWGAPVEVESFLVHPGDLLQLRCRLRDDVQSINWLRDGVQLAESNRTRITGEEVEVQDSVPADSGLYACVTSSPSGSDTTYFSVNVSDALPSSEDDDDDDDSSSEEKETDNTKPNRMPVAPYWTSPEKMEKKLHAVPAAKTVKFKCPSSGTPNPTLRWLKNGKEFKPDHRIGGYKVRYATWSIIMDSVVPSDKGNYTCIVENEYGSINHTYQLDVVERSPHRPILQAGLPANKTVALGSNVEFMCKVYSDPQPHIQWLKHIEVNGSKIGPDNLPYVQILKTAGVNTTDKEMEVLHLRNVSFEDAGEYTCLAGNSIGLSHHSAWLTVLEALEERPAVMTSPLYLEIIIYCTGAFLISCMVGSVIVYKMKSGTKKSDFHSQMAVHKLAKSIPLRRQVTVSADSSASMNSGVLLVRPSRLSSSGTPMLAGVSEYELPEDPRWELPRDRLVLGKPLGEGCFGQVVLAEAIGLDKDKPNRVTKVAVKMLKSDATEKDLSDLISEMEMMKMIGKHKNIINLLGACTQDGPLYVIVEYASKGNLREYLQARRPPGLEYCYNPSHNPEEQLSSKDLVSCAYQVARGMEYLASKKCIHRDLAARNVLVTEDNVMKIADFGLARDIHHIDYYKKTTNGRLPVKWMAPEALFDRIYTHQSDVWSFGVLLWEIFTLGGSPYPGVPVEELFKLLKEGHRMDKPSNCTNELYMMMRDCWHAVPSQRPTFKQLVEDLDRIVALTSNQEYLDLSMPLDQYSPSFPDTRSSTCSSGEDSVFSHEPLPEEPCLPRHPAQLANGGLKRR
# UniProt P21802, whole entry, looked up: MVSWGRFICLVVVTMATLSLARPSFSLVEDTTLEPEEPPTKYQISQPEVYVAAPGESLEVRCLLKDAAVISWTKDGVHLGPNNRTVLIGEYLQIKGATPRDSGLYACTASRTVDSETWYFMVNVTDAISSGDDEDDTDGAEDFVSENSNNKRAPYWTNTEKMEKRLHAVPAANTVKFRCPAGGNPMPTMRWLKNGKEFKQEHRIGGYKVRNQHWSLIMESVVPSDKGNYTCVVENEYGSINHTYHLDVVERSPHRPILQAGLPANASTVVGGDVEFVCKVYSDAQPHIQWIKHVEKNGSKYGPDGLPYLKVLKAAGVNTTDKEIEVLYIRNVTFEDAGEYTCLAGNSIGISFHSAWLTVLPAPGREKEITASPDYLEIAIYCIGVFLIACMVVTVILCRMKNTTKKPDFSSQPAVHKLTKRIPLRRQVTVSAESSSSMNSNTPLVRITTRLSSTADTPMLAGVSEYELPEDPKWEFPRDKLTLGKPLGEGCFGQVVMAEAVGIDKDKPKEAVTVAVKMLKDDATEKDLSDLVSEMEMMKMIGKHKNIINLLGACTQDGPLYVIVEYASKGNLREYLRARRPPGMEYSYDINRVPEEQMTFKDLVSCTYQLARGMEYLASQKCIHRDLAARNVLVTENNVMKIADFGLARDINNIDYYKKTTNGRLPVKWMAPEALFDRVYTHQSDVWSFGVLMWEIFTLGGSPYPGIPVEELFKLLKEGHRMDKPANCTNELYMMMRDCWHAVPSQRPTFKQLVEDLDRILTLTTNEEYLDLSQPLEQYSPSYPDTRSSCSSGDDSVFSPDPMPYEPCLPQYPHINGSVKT
# Where a name gives a salt, the structure may show the parent alone. The list shows a part of the results. Hit calls seldom repeat between salt and free forms of one compound.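 In K562 cells expressing nanoluciferase-fused kinases, luminescence was recorded at 4 h intervals between 2 and 18 h, normalized as percent of control with DMSO at 100% and a positive control at 0%. A significant (2 sigma) signal drop marks a time point as decreased. The authors' rule for a hit is not shown and takes in more than the number of time points.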
# What was measured:
# Assay in all cases: number of time points (of 5) at which kinase-Nluc abundance scored as decreased, DMSO-normalised (count); higher = more persistent destabilization
# Conditions in all cases: K562; 2-18 h
# EGFR_L861Q = EGFR_L861Q (UniProt P00533)
# EGFR_T790M = EGFR_T790M (UniProt P00533)
# EPHA2 = EPHA2 (UniProt P29317)
# ERBB3 = ERBB3 (UniProt P21860)
# [1] = biological target: ERBB4_R711C (clone: ERBB4_mut) (UniProt Q15303)
# ERN1 = ERN1 (UniProt O75460)
# FGFR1 = FGFR1 (UniProt P11362)
# FGFR2 = FGFR2 (UniProt P21802)
# FGFR3 = FGFR3 (UniProt P22607)
# FGR = FGR (UniProt P09769)
SMILES,number of time points (EGFR_L861Q),number of time points (EGFR_T790M),number of time points (EPHA2),number of time points (ERBB3),number of time points [1],number of time points (ERN1),number of time points (FGFR1),number of time points (FGFR2),number of time points (FGFR3),number of time points (FGR)
CNS(=O)(=O)C[C@H]1CC[C@H](N(C)c2[nH]cnc3nccc2-3)CC1 [Oclacitinib (maleate)] (10 µM),0,0,0,0,0,0,0,0,0,0
Cc1c(Br)c(Br)c2c3c1nc(N1CCNCC1)n3CCC2 [SEL120-34A (monohydrochloride)] (2.5 µM),0,0,0,0,0,0,0,0,0,0
C=CC(=O)Nc1cccc(Nc2nc(Nc3ccc(Oc4ccnc(C(=O)NC)c4)cc3)ncc2F)c1 (2.5 µM),0,0,0,0,0,0,0,0,0,0
CCN1C(C)(C)CC(Oc2ccc(C(=O)Nc3ccc(NC(=O)Nc4cc(C(C)(C)C)on4)cc3)nc2)CC1(C)C (10 µM),0,0,0,0,0,0,0,0,0,0
Cn1cc(-c2ccc3ncc(Cc4ccc5ncccc5c4)n3n2)cn1 (10 µM),0,0,0,0,0,0,0,0,0,0
Cc1cc(Nc2ncc(Cl)c(Nc3ccccc3S(=O)(=O)C(C)C)n2)c(OC(C)C)cc1C1CCN(CC(=O)NCCNc2cccc3c2C(=O)N(C2CCC(=O)NC2=O)C3=O)CC1 (stereo not given) (10 µM),0,0,0,0,0,0,0,0,0,0
Cc1c(C(=O)Nc2ccc(Oc3ccnc4cc(OCC(C)(C)O)ccc34)c(F)c2)c(=O)n(-c2ccccc2)n1C [Ningetinib Tosylate] (10 µM),0,0,0,2,1,0,1,2,0,0
NC(=O)c1cccc2c(N[C@H](CN3CCC3)c3ccc(Cl)c(C(F)(F)F)c3)ncnc12 (10 µM),0,0,0,0,0,0,0,0,0,0
O=c1cc(-c2ccc(O)cc2)oc2cc(O)c(O)c(O)c12 [Scutellarein] (10 µM),0,0,0,0,0,0,0,0,0,0
N#C/C(=C\c1ccc[nH]1)c1ccc(Cl)c(Cl)c1 (2.5 µM),0,0,0,0,0,0,0,0,0,0
CCCC[C@H](CO)Nc1nc(NC)ncc1OC [Interferon receptor inducer-1] (10 µM),0,0,0,0,0,0,0,0,0,0
Cc1nc(NC(=O)N2CCC[C@H]2C(N)=O)sc1-c1csc(C(C)(C)C)n1 (10 µM),0,0,0,0,0,0,0,0,0,0
Nc1nc2c(ncn2COCCO)c(=O)[nH]1 [Acyclovir] (10 µM),0,0,0,0,0,0,0,0,0,0
O=C1c2cccc(O)c2C(=O)c2c(O)cccc21 [Danthron] (10 µM),0,0,0,0,0,0,0,0,0,0
CNC(=O)Nc1cc(Oc2cncc(C)c2)c(-c2ccc(OCC(C)(C)O)nc2)cn1 (2.5 µM),0,0,0,0,0,0,1,0,0,0
CCCCCC1CC1CC1CC1CCCCCCCC(=O)O (stereo not given) (10 µM),0,0,0,0,0,0,0,0,0,0
COc1cc(/C=C/c2ccc(NC(=O)/C=C/c3cc(OC)c(OC)c(OC)c3)cc2)cc(OC)c1 (2.5 µM),0,0,0,0,0,0,0,0,0,0
COC(=O)[C@]1(C)CC[C@]2(C(=O)O[C@@H]3O[C@H](CO)[C@@H](O)[C@H](O)[C@H]3O)CC[C@]3(C)C(=CC[C@@H]4[C@@]5(C)C[C@H](O)[C@H](O[C@@H]6OC[C@@H](O[C@@H]7O[C@H](CO)[C@@H](O)[C@H](O)[C@H]7O)[C@H](O)[C@H]6O)[C@@](C)(CO)C5CC[C@]43C)[C@H]2C1 (stereo not given in full) [Esculentoside H] (10 µM),0,0,0,0,0,0,0,0,0,0

# Sorted by molar mass (smallest number first): some entries from above.
SMILES,number of time points (EGFR_L861Q),number of time points (EGFR_T790M),number of time points (EPHA2),number of time points (ERBB3),number of time points [1],number of time points (ERN1),number of time points (FGFR1),number of time points (FGFR2),number of time points (FGFR3),number of time points (FGR)
CCCC[C@H](CO)Nc1nc(NC)ncc1OC [Interferon receptor inducer-1] (10 µM),0,0,0,0,0,0,0,0,0,0
CNC(=O)Nc1cc(Oc2cncc(C)c2)c(-c2ccc(OCC(C)(C)O)nc2)cn1 (2.5 µM),0,0,0,0,0,0,1,0,0,0
Cc1c(C(=O)Nc2ccc(Oc3ccnc4cc(OCC(C)(C)O)ccc34)c(F)c2)c(=O)n(-c2ccccc2)n1C [Ningetinib Tosylate] (10 µM),0,0,0,2,1,0,1,2,0,0

# (next part)

SMILES,number of time points (EGFR_L861Q),number of time points (EGFR_T790M),number of time points (EPHA2),number of time points (ERBB3),number of time points [1],number of time points (ERN1),number of time points (FGFR1),number of time points (FGFR2),number of time points (FGFR3),number of time points (FGR)
CN(C)C(=O)c1cc2cnc(Nc3ccc(NC(=O)C4(C(=O)Nc5ccc(F)cc5)CC4)cc3)nc2n1C1CCCC1 (2 µM),0,0,1,1,0,1,0,0,0,0
CC(C)(O)c1cc(Nc2cc(Oc3cn(C4CC4)nc3C3CCOCC3)ccn2)ccn1 (10 µM),0,0,0,0,0,0,0,0,0,0
Cn1cc(-c2cn3nccc3c(-c3cnn([C@]4(CC#N)C[C@@H](C#N)C4)c3)n2)cn1 (10 µM),0,0,0,0,0,0,0,0,0,0
CCC(=O)N1CC[C@H](Nc2ncnc3c2CN(c2cnc(OC)c(C(F)(F)F)c2)CC3)C1 [Leniolisib] (10 µM),0,0,0,0,0,0,0,0,0,0
CC[C@H](C)[C@@H]1NC(=O)[C@@H]2CCCN2C(=O)[C@@H]2CCCN2C(=O)[C@@H]2CCCN2C(=O)[C@H](CC(C)C)NC(=O)CNC(=O)CNC(=O)[C@H](Cc2ccccc2)NC1=O [Heterophyllin B] (10 µM),0,0,0,0,0,0,0,0,0,0
O=C(NCc1cccc(O)c1)c1cc2cc(F)ccc2[nH]1 (10 µM),0,0,0,0,0,0,0,0,0,0
C=CC(=O)Nc1cccc(Oc2nc(Nc3ccc(N4CCN(C)CC4)cc3)nc3ccsc23)c1 [Olmutinib] (2.5 µM),0,0,0,0,0,0,0,0,0,0
Cc1ccc(CNC(=O)N2CCC[C@]3(CCN(Cc4ccc(Cl)c(Cl)c4)C3)C2)cc1 (10 µM),0,0,0,0,0,0,0,0,0,0
COc1ccc(-c2cnc3c(-c4cccc5ncccc45)cnn3c2)cc1 (10 µM),0,0,0,0,0,0,0,0,0,0
CC[C@H](C)[C@H](NC(=O)[C@H](CCCCN)NC(=O)[C@H](CC(C)C)NC(=O)[C@@H]1CCCN1C(=O)[C@H](CCC(=O)O)NC(=O)[C@H](Cc1ccc(O)cc1)NC(=O)[C@@H](NC(=O)[C@H](CO)NC(=O)CNC(=O)[C@H](CO)NC(=O)[C@H](CCCN=C(N)N)NC(=O)[C@H](CCCCN)NC(=O)[C@@H](NC(=O)[C@@H](N)CCCN=C(N)N)[C@@H](C)O)C(C)C)C(=O)O [Malantide] (10 µM),0,0,0,0,0,0,0,0,0,0
C1=N/C2=N/c3ccc(OCCN4CCCC4)c(c3)COC/C=C/COCc3cccc(c3)C(=C1)N2 [Pacritinib] (2.5 µM),0,0,0,0,0,0,0,0,0,0
"CC(=O)c1cc(O)ccc1O [2,5-Dihydroxyacetophenone] (10 µM)",0,0,0,0,0,0,0,0,0,0
OCCC#Cc1nc(-c2ccc(F)cc2)c(-c2ccncc2)n1CCCc1ccccc1 (2.5 µM),0,0,0,0,0,0,0,0,0,0
COc1cccc2cc(-c3nc([C@H]4CC[C@H](C(=O)O)CC4)n4ncnc(N)c34)[nH]c12 (2.5 µM),2,0,0,3,4,1,4,3,0,0
CC(C)c1cnn2c(NCc3ccccc3)cc(NCCCCCCN)nc12 [BS-181 (hydrochloride)] (10 µM),0,0,0,0,0,0,0,0,0,0
Cc1cc([N+](=O)[O-])c(NS(=O)(=O)c2cccc(C(=O)O)c2)cc1-c1cccnc1 [Alofanib] (10 µM),0,0,0,0,0,0,0,0,0,0
C[C@@]12CCc3occc3[C@H]1CC[C@@]13C[C@@H](CC[C@H]12)[C@@](O)(CO)C3 [Cafestol] (10 µM),0,0,0,0,0,0,0,0,0,0
